Broadly, the AC50 is the concentration giving half of the maximal activity seen.

Consider 53 compounds from PubChem BioAssay AID1487 (National Center for Advancing Translational Sciences (NCATS), 2009).

The other results are listed elsewhere or left out. These are further read-outs of the screen, such as a control signal, another cell line or another target. No call is given for them. Compounds called inactive in the main read-out are mostly missing here. Words in brackets tell the shape of the fitted curve; partial curves, single points and poor fits give uncertain potencies.

The nature of the assay: qHTS Assay for Modulators of Lamin A Splicing. The conditions noted are these: HeLa LMNA splicing GFP/RFP minigene ratio, 48 h. The procedure, abridged: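 Read-out is the ratio of GFP to DsRed2 object intensity, acquired by 488 nm laser-scanning cytometry on HeLa lamin A-EGFP minigene reporter cells. Compound incubation 48 hrs at 37 °C in Opti-MEM with 2% FBS; DMSO 0.5% final.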
(qHTS replaces the single test concentration by a dilution series.)

[1] abbreviates: measured here: GFP splicing reporter channel.
[2] abbreviates: measured here: RFP viability control channel.

In the case of `CCOC(=O)c1cc(-c2ccc(F)cc2)n(CC(=O)NC2CCCCC2)c1C`, under setting [1], the AC50 was 7.94 µM [rising, partial curve, poor fit].
With `O=C(NCCCn1ncc2ccccc21)c1cc(COc2c(F)cccc2F)on1`, the concentration at half-maximal activity (AC50) was 1.41 µM [falling, partial curve] under setting [1] and 0.891 µM [falling, full curve, poor fit] under setting [2].
On to `COc1ccc(-c2cc3nc(-c4ccccc4)cc(N4CCCC(O)C4)n3n2)cc1` (stereo not drawn), for which the concentration at half-maximal activity (AC50) is 14.1 µM [rising, partial curve, poor fit] under setting [1] and 17.8 µM [rising, single point] under setting [2].
On to `CCS(=O)(=O)c1ccc(C(=O)Nc2cccc(Cl)c2)c(Cl)c1Cl`, for which the AC50 is 22.4 µM [rising, single point] under setting [1] and 22.4 µM [rising, single point] under setting [2].
As for `COc1cc(CNc2ccc3[nH]c(=O)[nH]c3c2)cc(Br)c1OCC(=O)NC(C)(C)C`, the concentration at half-maximal activity (AC50) under setting [2] is 14.1 µM [rising, single point].
Regarding `CCOC(=O)c1c(C=O)c2sc(C)cc2n1C`, the AC50 is 1.41 µM [rising, partial curve, poor fit] under setting [1] and 0.794 µM [rising, partial curve] under setting [2].
Consider `CC(NC(=O)NC1CCCCC1)C(c1cccs1)N1CCN(c2ccccc2)CC1` (stereo not drawn), for which the AC50 was 35.5 µM [rising, single point] under setting [1] and 35.5 µM [rising, single point] under setting [2].
In the case of `CCOc1ccccc1CNC(=O)CN1C(=O)CCCc2ccccc21`, under setting [1], the AC50 was 0.251 µM [rising, partial curve].
For the compound `Cc1ccc(-n2ncc3c(NCCc4ccccc4)ncnc32)cc1C`, the AC50 by setting is: under setting [1], 15.8 µM [falling, partial curve]; under setting [2], 14.1 µM [falling, partial curve, poor fit].
Regarding `C[C@]12C=CC(=O)C=C1CCC1C2C(O)C[C@]2(C)C1CC[C@]2(O)C(=O)CO` (stereo partly drawn), the AC50 under setting [1] was 35.5 µM [falling, single point].
Still for that read-out and setting: the value for `COc1ccc(CNC(=O)CCCCCn2c(SCC#N)nc3cc4c(cc3c2=O)OCO4)cc1` was 15.8 µM [rising, single point].
For the compound `O=C(Nc1ccc(Oc2ccccc2)cc1)c1cnc2n(c1=O)CCS2`, the AC50 under setting [2] was 3.16 µM [rising, full curve].
For `O=C(/C=C/c1cccc([N+](=O)[O-])c1)Nn1c(-c2ccccc2F)nc2ccccc2c1=O`, the concentration at half-maximal activity (AC50) runs as follows: under setting [1], 35.5 µM [rising, single point]; under setting [2], 20 µM [rising, single point].
For `Cc1ccnc(NC(=O)CCC(=O)N(CC(=O)NCc2ccccc2)Cc2ccco2)c1`, the concentration at half-maximal activity (AC50) under setting [1] is 0.398 µM [falling, full curve, poor fit].
Consider `COc1ccc2cc3cc(C(=O)Nc4ccccc4N4CCN(C)CC4)oc3nc2c1`, for which the concentration at half-maximal activity (AC50) under setting [2] was 35.5 µM [falling, single point].
The same measure, in the same setting: the value for `CC(=O)N1[C@H](C)C=C[C@]1(Cc1ccccc1)C(=O)NCc1cc(F)cc(C(F)(F)F)c1` was 10 µM [rising, partial curve, poor fit].
For the compound `O=C1NC(Cc2c[nH]c3ccccc23)C(=O)N1CCOc1ccc(F)cc1` (stereo not drawn), the AC50 runs as follows: under setting [1], 35.5 µM [rising, single point]; under setting [2], 22.4 µM [rising, single point].
`Cc1ccc(-c2csc(NC(=O)/C=C/c3cccs3)n2)cc1C`: the AC50 was 11.2 µM [rising, partial curve] under setting [1] and 12.6 µM [rising, partial curve] under setting [2].
For the compound `O=C(O)Cc1c[nH]c2ccc(O)cc12`, the concentration at half-maximal activity (AC50) under setting [1] was 0.1 µM [falling, full curve].
Regarding `COC(=O)Cc1[nH]nc2c1C(C1C=CCCC1)C(C#N)=C(N)O2` (stereo not drawn), under setting [2], the concentration at half-maximal activity (AC50) was 8.91 µM [rising, partial curve].
On the same count and under the same terms, next, `Cc1nnc(NC(=O)C2c3ccccc3Oc3ccccc32)s1`: 11.2 µM [rising, partial curve]; `Cc1cc(C)n2c(SCc3nnc(-c4cccs4)o3)nnc2n1`: 0.251 µM [falling, full curve, poor fit].
With `COc1ccc(CNC(=O)C(c2ccco2)N(C(=O)CNS(=O)(=O)c2ccccc2)c2ccccc2C)cc1` (stereo not drawn), the half-maximal activity concentration (AC50) by setting is: under setting [1], 17.8 µM [rising, single point]; under setting [2], 12.6 µM [rising, single point].
On to `CCc1c(C#N)c(SCCC(=O)Nc2ccc(F)cc2)nc2c1C(=O)CC(C)(C)C2`, for which, under setting [2], the AC50 was 25.1 µM [rising, single point].
Take `CC(C)CCn1c(N2CCc3ccccc3C2)nc2c1c(=O)[nH]c(=O)n2C`: the AC50 runs as follows: under setting [1], 0.01 µM [rising, full curve, poor fit]; under setting [2], 2.51 µM [rising, partial curve, poor fit].
With `CCC1CCCCN1C(=S)Nc1ccc(SC(F)F)cc1` (stereo not drawn), under setting [2], the AC50 was 22.4 µM [rising, partial curve].
In the case of `Cc1onc(-c2ccccc2)c1C(=O)OCC(=O)Nc1ccc2c(c1)OCO2`, the concentration at half-maximal activity (AC50) is, setting by setting: under setting [1], 7.94 µM [rising, partial curve, poor fit]; under setting [2], 11.2 µM [rising, partial curve].
As to `O=C(c1ccc(-c2ccc([N+](=O)[O-])cc2)o1)N1CCCCC1`, the concentration at half-maximal activity (AC50) under setting [2] was 6.31 µM [rising, partial curve, poor fit].
`OCc1nc2ccccc2n1C/C=C/c1ccccc1`: the AC50 runs as follows: under setting [1], 12.6 µM [rising, single point]; under setting [2], 17.8 µM [rising, single point].
For the compound `O=C(CSc1nc2ccc(NC(=O)C3CCCCC3)cc2s1)NCC1CCCO1` (stereo not drawn), the AC50 by setting is: under setting [1], 14.1 µM [rising, single point]; under setting [2], 11.2 µM [rising, partial curve, poor fit].
`Cc1ccc(S(=O)(=O)N2CCN(c3ccc([N+](=O)[O-])c4cccnc34)CC2)cc1`: the AC50 under setting [2] was 35.5 µM [rising, single point].
Consider `COc1ccc([N+](=O)[O-])cc1N(CC(=O)NCCC1=CCCCC1)S(C)(=O)=O`, for which the AC50 was 35.5 µM [rising, single point] under setting [1] and 15.8 µM [rising, single point] under setting [2].
In the case of `O=C1NCCN(Cc2ccc(-c3ccccc3)cc2)C1CC(=O)N1CCN(CCO)CC1` (stereo not drawn), the AC50 under setting [2] was 5.01 µM [falling, single point].
Take `NC(=O)c1c(NC(=O)c2ccncc2)sc2c1CCCC2`: the AC50 under setting [1] is 3.55 µM [rising, partial curve].
`COc1ccccc1N1CCN(C(=O)Cc2c(C(=O)O)[nH]c3ccc(Cl)cc23)CC1`: the concentration at half-maximal activity (AC50) under setting [2] is 31.6 µM [falling, partial curve, poor fit].
`Cc1ccc(CCN2CC(C(=O)NCCN3CCOCC3)CC2=O)cc1` (stereo not drawn): the half-maximal activity concentration (AC50) is, setting by setting: under setting [1], 28.2 µM [falling, single point]; under setting [2], 31.6 µM [falling, partial curve].
With `COc1ccc(S(=O)(=O)NC(CC(=O)NCC2CCCO2)c2ccco2)cc1` (stereo not drawn), the half-maximal activity concentration (AC50) was 31.6 µM [rising, single point] under setting [1] and 31.6 µM [rising, single point] under setting [2].
Turning to `CCOC(=O)c1ccc(S(=O)(=O)NC2CCCCCCC2)n1C`, the AC50 under setting [2] was 14.1 µM [rising, single point].
On the same count and under the same terms, the value for `COc1ccc(C2CC(c3ccccc3)=NN2C(=O)COC(=O)c2cccnc2Cl)cc1` (stereo not drawn) was 22.4 µM [rising, single point].
For `O=C(NNc1nc(-c2ccccc2)cs1)c1ccco1`, the concentration at half-maximal activity (AC50) runs as follows: under setting [1], 35.5 µM [rising, single point]; under setting [2], 25.1 µM [rising, single point].
For `O=C(/C=C/c1ccco1)OCC1CCCN2CCCCC12` (stereo not drawn), the half-maximal activity concentration (AC50) was 0.158 µM [falling, partial curve, poor fit] under setting [1] and 0.398 µM [falling, full curve] under setting [2].
In the case of `COc1ccc(CNCC(O)(c2ccc(Cl)cc2)c2ccc(Cl)cc2)cc1OC`, the half-maximal activity concentration (AC50) was 22.4 µM [falling, single point] under setting [1] and 25.1 µM [falling, single point] under setting [2].
For `O=C(CSc1ccc2ccccc2n1)NCCC1=CCCCC1`, under setting [2], the AC50 was 35.5 µM [rising, single point].
As to `CC(C)(C)OC(=O)N1CCC(c2c(C(=O)Nc3ccc4c(c3)OCCO4)cnn2-c2ccc(F)cc2)CC1`, the concentration at half-maximal activity (AC50) under setting [2] was 2.82 µM [falling, partial curve, poor fit].
The same measure, in the same setting: the value for `COc1ccc(OC)c(NCc2cccn2-c2nnc(N3CCC(C)CC3)s2)c1` was 2.51 µM [rising, full curve].
`CCN(CC)S(=O)(=O)c1ccc(OCC(=O)NCc2ccccc2)cc1`: the AC50 under setting [1] is 10 µM [rising, partial curve].
Take `CCCOc1ccc(S(=O)(=O)NCc2ccc(OC)cc2)cc1`: under setting [2], the AC50 is 14.1 µM [rising, partial curve].
Consider `Cc1ccc(Cl)cc1Nc1nc(-c2sc(NC(=O)c3cccc(Cl)c3)nc2C)cs1`, for which the AC50 runs as follows: under setting [1], 35.5 µM [falling, single point]; under setting [2], 15.8 µM [falling, single point].
Regarding `O=C(Cc1ccccc1)N/N=C/c1ccc([N+](=O)[O-])s1`, the AC50 is 22.4 µM [falling, single point] under setting [1] and 20 µM [falling, partial curve] under setting [2].
Consider `O=C(Nc1nccs1)c1ccc(COc2ccccc2Cl)o1`, for which the AC50 was 0.00447 µM [falling, full curve, poor fit] under setting [1] and 0.00316 µM [falling, full curve, poor fit] under setting [2].
Regarding `COc1ccccc1N1CCN(C(=O)c2nc(-c3ccc(C)cc3)n3c2CCCCC3)CC1`, the half-maximal activity concentration (AC50) under setting [1] is 35.5 µM [falling, single point].
On to `O=C(c1cc2c(s1)-c1ccccc1OC2)N1CCc2ccccc2C1`, for which the AC50 under setting [1] is 11.2 µM [rising, partial curve] and the AC50 under setting [2] is 15.8 µM [rising, partial curve].
For the compound `O=S(=O)(c1ccc(Cl)c(NC(=S)N/N=C/c2ccc(O)cc2)c1)N1CCOCC1`, the AC50 reads like this: under setting [1], 6.31 µM [rising, partial curve]; under setting [2], 35.5 µM [rising, partial curve].
